Data taken from patent US20220289816A1, “IMMUNOTHERAPY WITH B*07 RESTRICTED PEPTIDES AND COMBINATION OF PEPTIDES AGAINST CANCERS AND RELATED METHODS” (Immatics Biotechnologies GmbH, priority 2018, published 2022).

System: tumor tissue samples and normal tissue samples (HLA-B*07 positive)
Experiment: Identification and quantitation of tumor associated peptides presented on the cell surface (HLA immunoprecipitation, label-free LC-MS)
Set-up: species or system human
Settings: Table 8a; cancer entities on which the peptide was found presented (abbreviations in table head)

Substance	Peptide Presentation on cancer entities
121 (GPFQRAAL; listed as Homo sapiens) [compound 121]	UEC
122 (KPRTPFTTAQLL; listed as Homo sapiens) [compound 122]	UEC
123 (RPRLRDLPAL; listed as Homo sapiens) [compound 123]	CLL, GBC, NHL, OC, OSCAR, RCC
124 (KTIDGHINL; listed as Homo sapiens) [compound 124]	CRC, NSCLCadeno, NSCLCother
125 (SPAKQFNIY; listed as Homo sapiens) [compound 125]	SCLC
126 (MPREDAHF; listed as Homo sapiens) [compound 126]	MEL
127 (KSKQVITLL; listed as Homo sapiens) [compound 127]	NSCLCsquam
129 (MTLPATTLTL; listed as Homo sapiens) [compound 129]	BRCA, CCC, CLL, CRC, GBC, GBM, HCC, HNSCC, MEL, NSCLCadeno, NSCLCsquam, OC, OSCAR, PACA, RCC, SCLC, UBC, UEC
130 (GAYDKARYL; listed as Homo sapiens) [compound 130]	BRCA
131 (MPFRNIRSIL; listed as Homo sapiens) [compound 131]	HCC
133 (LPELPTTLTF; listed as Homo sapiens) [compound 133]	NSCLCadeno
134 (VAAAARLTL; listed as Homo sapiens) [compound 134]	MEL
135 (MPRLLRLSL; listed as Homo sapiens) [compound 135]	UEC
136 (QPDHAGIFRVF; listed as Homo sapiens) [compound 136]	HNSCC, OSCAR
137 (SPQLSYFEY; listed as Homo sapiens) [compound 137]	OSCAR
138 (VPFNLITEY; listed as Homo sapiens) [compound 138]	MEL
140 (TPFPDIHWF; listed as Homo sapiens) [compound 140]	NSCLCsquam, RCC, SCLC
143 (YPMIPPAQL; listed as Homo sapiens) [compound 143]	SCLC
144 (RPVQGIPTY; listed as Homo sapiens) [compound 144]	MEL
145 (VPAQRLGLLL; listed as Homo sapiens) [compound 145]	BRCA, GBM, HNSCC, NSCLCsquam, OC
148 (KPHLIYRQ; listed as Homo sapiens) [compound 148]	AML, BRCA, CRC, HCC, HNSCC, MEL, NSCLCadeno, OSCAR, RCC, SCLC, UEC
150 (APLHGGGSL; listed as Homo sapiens) [compound 150]	PRCA
151 (QPTWNTQTRL; listed as Homo sapiens) [compound 151]	NHL
154 (RPPPSRRAVL; listed as Homo sapiens) [compound 154]	GBM
155 (APIPRLIEG; listed as Homo sapiens) [compound 155]	OSCAR
156 (GSRPVTGSV; listed as Homo sapiens) [compound 156]	BRCA

Substance	Peptide Presentation on cancer entities
157 (RPVTGSVC; listed as Homo sapiens) [compound 157]	BRCA, NSCLCadeno
158 (SVPVATVEL; listed as Homo sapiens) [compound 158]	CLL
159 (TPMTVPRI; listed as Homo sapiens) [compound 159]	CLL, NHL
160 (IPVSHPVLTF; listed as Homo sapiens) [compound 160]	BRCA, CRC, GBM, HCC, NSCLCadeno
161 (ASKILETSL; listed as Homo sapiens) [compound 161]	MEL
163 (FRYPNGVSL; listed as Homo sapiens) [compound 163]	HCC
164 (RAAGRRLQL; listed as Homo sapiens) [compound 164]	HCC
166 (YAYTSRVIL; listed as Homo sapiens) [compound 166]	NHL
168 (SPSGQRDVSL; listed as Homo sapiens) [compound 168]	MEL
169 (RPFSVSSISQL; listed as Homo sapiens) [compound 169]	MEL
170 (APEGKRLGF; listed as Homo sapiens) [compound 170]	MEL
171 (LPLGGHKSL; listed as Homo sapiens) [compound 171]	MEL
172 (SAQSLHPVL; listed as Homo sapiens) [compound 172]	GBM
173 (VIINNPISL; listed as Homo sapiens) [compound 173]	NSCLCother
174 (IPVTSSVTL; listed as Homo sapiens) [compound 174]	NSCLCsquam,OSCAR
175 (AAFPHKIIF; listed as Homo sapiens) [compound 175]	OSCAR
177 (VWEPQGSSRSL; listed as Homo sapiens) [compound 177]	UEC
178 (VPYYPRANL; listed as Homo sapiens) [compound 178]	OSCAR
179 (PRVRLLLL; listed as Homo sapiens) [compound 179]	GBC, HNSCC
180 (RLRDYISSL; listed as Homo sapiens) [compound 180]	CLL, NHL
183 (VPRRPARAL; listed as Homo sapiens) [compound 183]	BRCA, GBM, MEL
184 (KIIASGNHL; listed as Homo sapiens) [compound 184]	NSCLCother
185 (RPVLTASSF; listed as Homo sapiens) [compound 185]	NHL
188 (HAAASFETL; listed as Homo sapiens) [compound 188]	NSCLCadeno
190 (RLAHVRARL; listed as Homo sapiens) [compound 190]	UEC
191 (KPKAVKPKAA; listed as Homo sapiens) [compound 191]	NSCLCadeno
